Data from PubChem BioAssay AID2685 (National Center for Advancing Translational Sciences (NCATS), 2010).
This is one part of the list. The main result of the screen is listed elsewhere. These columns were measured beside it and carry no call. Compounds called inactive in the main read-out are mostly missing here. Words in brackets tell the shape of the fitted curve; partial curves, single points and poor fits give uncertain potencies.

Test: qHTS Assay for Lipid Storage Modulators in Drosophila S3 Cells;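 as to cell number change: cells counted by Cell Tracker Red CMTPX staining in the red channel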
Settings: BODIPY lipid droplet fluorescence, 18-24 h; for cell number change: measured here: cell count max response, cells fed with added oleic acid
In short: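 Laser-scanning cytometry quantifies lipid droplet accumulation (500–530 nm total intensity; droplet/cell object ratio) in oleic acid-fed (400 uM added) Drosophila S3 cells treated with a concentration series. 20 uM Triacsin C defined 100% inhibition.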

[1] = measured here: cell number channel AC50, cells fed with added oleic acid
[2] = measured here: lipid fluorescence (Fed channel) AC50, cells fed with added oleic acid

Row | SMILES | cell number change [%] | AC50 [1] | AC50 [2]
1 | COc1cc(NC(=O)c2ccccc2-n2cnnn2)cc(OC)c1 | 11.6 | – | –
2 | O=C(Nc1ccc(Br)cc1Cl)Nn1cnnc1 | -31 | 1.64 µM [falling, full curve] | 29.1 µM [falling, single point]
3 | O=C(NC1CCCc2ccccc21)C1CCN(S(=O)(=O)c2cccc3nsnc23)CC1 (stereo unspecified) | – | 2.31 µM [rising, single point] | –
4 | CCN1C(=O)/C(=C/c2cnn(CC)c2C)SC1=S | 15.7 | 2.06 µM [rising, single point] | 2.06 µM [rising, partial curve, poor fit]
5 | CCOC(=O)N1CC=C2C(C#N)=C(N)C(C#N)(C#N)[C@H](c3ccc(OCC)c(OCC)c3)[C@H]2C1 | -37.1 | – | 0.13 µM [rising, full curve, poor fit]
6 | O=C(Nc1ccccc1C(F)(F)F)c1ccc(CN2CCC(Cc3ccccc3)CC2)cc1 | -31.2 | 14.6 µM [falling, partial curve] | –
7 | Cc1cc(/C=C(\C#N)C(=O)Nc2ccccc2)c(C)n1-c1ccc2c(c1)OCO2 | – | 1.46 µM [rising, full curve] | 0.58 µM [rising, full curve]
8 | O=C(Nc1ccccc1)c1cccnc1Nc1ccccc1 | -10.4 | – | 0.517 µM [rising, partial curve]
9 | CC[C@H]1OC(=O)[C@H](C)[C@@H](O[C@H]2C[C@@](C)(OC)[C@@H](O)[C@H](C)O2)[C@H](C)[C@@H](O[C@@H]2O[C@H](C)C[C@H](N(C)C)[C@H]2O)[C@](C)(O)C[C@@H](C)C(=O)[C@H](C)[C@@H](O)[C@]1(C)O | 13.2 | – | –
10 | C/C(=N\NC(=O)c1cc(O)ccc1O)c1cccc(NC(=O)c2ccc(Cl)cc2)c1 | -22.6 | – | 6.51 µM [rising, single point]
11 | O=C(NCc1ccc(F)cc1)N[C@@H](Cc1ccccc1)C(=O)O | -8.57 | – | 5.17 µM [falling, partial curve, poor fit]
12 | CCC1(c2ccccc2)NC(=O)N(CC(=O)NCc2ccc(F)cc2)C1=O (stereo unspecified) | 29.4 | – | 18.4 µM [rising, partial curve]
13 | CCCCn1c(N)c(N(CCOC)C(=O)COc2ccc(Cl)cc2)c(=O)[nH]c1=O | -12.9 | 0.00461 µM [falling, full curve, poor fit] | –
14 | CCN(CC)c1ccc(/C=N/NC(=O)c2cccc(S(=O)(=O)Nc3ccccc3OC)c2)c(O)c1 | -19.3 | – | 10.3 µM [falling, partial curve, poor fit]
15 | CCOC(=O)c1cnc2c(C(=O)OC)cccc2c1NCCN1CCOCC1 | -3.35 | – | 20.6 µM [rising, single point]
16 | O=C(Nc1ccc(CN2CCOCC2)cc1)c1cc(Cl)ccc1Cl | 5.96 | – | 29.1 µM [falling, single point]
17 | O=C1NC(=O)N(c2ccccc2)C1=O | – | – | 0.1 µM [rising, full curve, poor fit]
18 | Cc1cc(COc2ccccc2)oc1C(=O)O | 24.1 | 2.59 µM [rising, full curve, poor fit] | –
19 | O=C(CCN1C(=O)S/C(=C\c2cccs2)C1=O)NC1=NCCS1 | 12.2 | – | 29.1 µM [rising, single point]

Row | SMILES | cell number change [%] | AC50 [1] | AC50 [2]
20 | CCCOc1ccc(/C=C/c2c([N+](=O)[O-])c(=O)n(C)c(=O)n2C)cc1 | -13.5 | – | 16.4 µM [falling, single point]
21 | C/C(N)=C(/C#N)C(=O)CSc1nc2scc(-c3ccc(F)cc3)c2c(=O)n1C | 1.75 | – | 1.64 µM [rising, partial curve, poor fit]
22 | CCCN1CCN(S(=O)(=O)c2ccc3c(c2)OCCO3)CC1 | 6.02 | – | –
23 | O=C(Cc1cccs1)Nc1ccccc1 | 11.2 | 7.31 µM [rising, partial curve, poor fit] | 0.58 µM [rising, single point]
24 | CCc1nnc(NC(=O)c2cccc(S(=O)(=O)N3CCCCC3)c2)s1 | 5.95 | – | 29.1 µM [rising, single point]
25 | O=C(Nc1ccc(N2CCCC2)cc1)c1ccccc1[N+](=O)[O-] | -26.7 | – | 29.1 µM [rising, single point]
26 | COc1ccc(OC)c(NC(=O)COC(=O)c2ccc(OC)c(S(=O)(=O)N3CCCC3)c2)c1 | 17.3 | – | 0.00651 µM [rising, full curve, poor fit]
27 | O=c1c(Cc2ccc(Cl)cc2)c(O)ccn1Cc1ccccc1 | -18.8 | 2.91 µM [falling, partial curve] | –
28 | COc1cccc(CNC(=O)Cc2ccc(NC(=O)C3=C(C)OCCS3)cc2)c1 | -41 | 29.1 µM [falling, single point] | –
29 | Cn1c(C(=O)O)c(CC(=O)Nc2ccc3c(c2)OCCO3)c2ccccc21 | 3.45 | – | –
30 | CC(=O)NC1=C(Nc2ccc(N(C)C)cc2)C(=O)c2ccccc2C1=O | -13.5 | – | 23.1 µM [falling, single point]
31 | CC(C)c1ccc(N2C(=O)CC(NNC(=O)c3ccccc3Cl)C2=O)cc1 (stereo unspecified) | -1.69 | – | –
32 | Cc1nn2c(c1-c1ccccc1)N=C(c1ccco1)CC2c1ccccc1 (stereo unspecified) | 12 | – | 1.84 µM [rising, full curve]
33 | COc1ccc(NCC(O)COc2ccc(C(C)(C)C)cc2)cc1 (stereo unspecified) | -42.3 | 7.31 µM [falling, partial curve, poor fit] | –
34 | CC(C)(C)N1C(=O)[C@H]2[C@@H](c3ccc(Br)cc3)N3C(=O)N(c4cccc(Cl)c4)C(=O)[C@@]3(C)[C@H]2C1=O | -46.1 | 29.1 µM [falling, single point] | 16.4 µM [falling, single point]
35 | Cc1c(Cl)cccc1NC(=S)NN1CCOCC1 | -2.07 | – | 1.84 µM [falling, partial curve, poor fit]
36 | COc1ccc(/C=N/NC(=O)c2cc(-c3cccn3C)n[nH]2)cc1OC | 8.04 | – | 11.6 µM [rising, partial curve]
37 | O=C(CN(C(=O)CCC(=O)Nc1nccs1)c1ccc(F)cc1)NCc1ccccc1 | -2.56 | – | 5.17 µM [rising, single point]

In the list so far, 2 contain an NH in an aromatic ring.
Row | SMILES | cell number change [%] | AC50 [1] | AC50 [2]
13 | CCCCn1c(N)c(N(CCOC)C(=O)COc2ccc(Cl)cc2)c(=O)[nH]c1=O | -12.9 | 0.00461 µM [falling, full curve, poor fit] | –
36 | COc1ccc(/C=N/NC(=O)c2cc(-c3cccn3C)n[nH]2)cc1OC | 8.04 | – | 11.6 µM [rising, partial curve]
